Measured values taken from US7361279B2, “Removing metals from solution using metal binding compounds and sorbents therefor” (priority 2002, dated 2008).

Test: Flow-through / column metal removal with benzotriazole and activated carbon
Details: molar excess of the metal by 30:1, hydraulic residence time at least two hours

Cc1ccc2[nH]nnc2c1 [5-MeBT, 5-methylbenzotriazole]
metal concentration reduction on granular activated carbon: at least a thousand fold concentration reduction
